No constants are given. Whether binding was seen depends on the method and setting. In cells and extracts the contact can be indirect. Some results given as binding are weak or reduced against the parent protein; the word gives no strength. One block for each molecule: values may come before it.
Tests used:
[1] = biological target: Girdin (human (endogenous in A549)) (UniProt Q3V6T2); test: co-IP; reciprocal IP in A549 cells with control IgG and anti-Girdin or anti-Flag antibody
[2] = biological target: Girdin (human (endogenous in A549)) (UniProt Q3V6T2); test: co-IP; co-IP in A549 cells to screen the Girdin-interacting proteins from key enzymes of glycolysis

By UniProt entry, the sequences of proteins in these tests, tags left out.
UniProt Q3V6T2: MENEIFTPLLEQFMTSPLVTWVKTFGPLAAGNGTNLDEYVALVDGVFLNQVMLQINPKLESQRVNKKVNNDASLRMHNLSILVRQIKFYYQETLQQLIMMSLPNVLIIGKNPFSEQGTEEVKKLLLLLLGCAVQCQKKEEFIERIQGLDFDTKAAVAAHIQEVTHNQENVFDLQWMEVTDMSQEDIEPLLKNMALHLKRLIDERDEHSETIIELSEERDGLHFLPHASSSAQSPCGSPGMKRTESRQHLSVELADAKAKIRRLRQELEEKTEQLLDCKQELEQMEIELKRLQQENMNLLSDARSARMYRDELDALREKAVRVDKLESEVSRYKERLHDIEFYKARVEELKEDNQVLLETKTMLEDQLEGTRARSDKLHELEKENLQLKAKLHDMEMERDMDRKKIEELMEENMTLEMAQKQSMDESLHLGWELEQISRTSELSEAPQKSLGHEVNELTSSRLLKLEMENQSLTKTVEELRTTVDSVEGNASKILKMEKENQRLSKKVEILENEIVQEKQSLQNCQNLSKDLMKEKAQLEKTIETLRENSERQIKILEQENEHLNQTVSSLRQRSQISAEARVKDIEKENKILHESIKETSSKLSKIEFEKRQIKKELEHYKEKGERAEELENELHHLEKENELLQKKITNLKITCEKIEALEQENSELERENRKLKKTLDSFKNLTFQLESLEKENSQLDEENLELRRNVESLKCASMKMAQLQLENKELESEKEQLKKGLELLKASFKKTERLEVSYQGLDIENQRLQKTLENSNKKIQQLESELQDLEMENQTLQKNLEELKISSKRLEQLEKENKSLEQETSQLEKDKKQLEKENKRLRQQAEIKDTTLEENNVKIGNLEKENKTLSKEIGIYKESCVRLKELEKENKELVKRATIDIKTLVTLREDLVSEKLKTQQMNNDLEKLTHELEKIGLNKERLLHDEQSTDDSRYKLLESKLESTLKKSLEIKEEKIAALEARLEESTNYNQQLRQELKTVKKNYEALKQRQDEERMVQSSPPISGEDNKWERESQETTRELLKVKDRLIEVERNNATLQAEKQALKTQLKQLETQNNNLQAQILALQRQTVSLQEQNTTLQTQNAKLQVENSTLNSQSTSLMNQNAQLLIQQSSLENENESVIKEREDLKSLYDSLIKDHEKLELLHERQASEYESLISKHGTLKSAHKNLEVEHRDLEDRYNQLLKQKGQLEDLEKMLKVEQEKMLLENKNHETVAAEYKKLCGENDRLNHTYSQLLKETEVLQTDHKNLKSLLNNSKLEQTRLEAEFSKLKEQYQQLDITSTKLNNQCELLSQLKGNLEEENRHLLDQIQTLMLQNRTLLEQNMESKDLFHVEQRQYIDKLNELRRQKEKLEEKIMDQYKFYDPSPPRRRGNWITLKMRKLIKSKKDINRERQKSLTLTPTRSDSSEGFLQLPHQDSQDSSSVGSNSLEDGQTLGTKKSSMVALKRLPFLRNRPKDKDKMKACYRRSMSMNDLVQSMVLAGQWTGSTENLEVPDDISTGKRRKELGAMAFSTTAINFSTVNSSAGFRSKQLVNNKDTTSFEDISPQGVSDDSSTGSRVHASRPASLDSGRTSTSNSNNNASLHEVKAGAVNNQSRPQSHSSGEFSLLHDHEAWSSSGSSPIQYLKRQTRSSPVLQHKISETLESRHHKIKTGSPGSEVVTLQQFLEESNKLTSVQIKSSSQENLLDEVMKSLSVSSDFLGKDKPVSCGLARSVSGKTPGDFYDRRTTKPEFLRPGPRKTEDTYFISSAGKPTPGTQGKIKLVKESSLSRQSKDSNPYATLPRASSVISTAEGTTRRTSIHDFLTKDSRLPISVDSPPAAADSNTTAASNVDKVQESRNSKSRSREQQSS
UniProt P14618: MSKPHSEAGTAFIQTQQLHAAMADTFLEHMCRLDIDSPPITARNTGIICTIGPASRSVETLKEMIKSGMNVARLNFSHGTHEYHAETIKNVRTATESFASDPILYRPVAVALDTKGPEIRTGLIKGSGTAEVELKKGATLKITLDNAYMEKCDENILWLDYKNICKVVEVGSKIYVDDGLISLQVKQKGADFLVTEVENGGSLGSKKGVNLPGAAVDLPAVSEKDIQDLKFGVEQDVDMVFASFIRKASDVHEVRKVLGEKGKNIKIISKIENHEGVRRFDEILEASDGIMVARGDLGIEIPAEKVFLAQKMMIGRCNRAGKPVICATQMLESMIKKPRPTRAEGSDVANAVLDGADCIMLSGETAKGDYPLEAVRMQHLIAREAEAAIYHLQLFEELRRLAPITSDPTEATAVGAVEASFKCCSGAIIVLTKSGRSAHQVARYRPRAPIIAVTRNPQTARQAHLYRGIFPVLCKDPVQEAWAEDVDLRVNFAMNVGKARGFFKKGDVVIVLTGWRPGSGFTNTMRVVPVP

- binding [1]: binds
- binding [2]: binds
Molecule: pyruvate kinase M2 (from UniProt P14618 1-531) (enzyme)

- binding [2]: no binding
B1: Phosphofructokinase Platelet (enzyme, UniProt Q01813 1-784)
chain: MDADDSRAPKGSLRKFLEHLSGAGKAIGVLTSGGDAQGMNAAVRAVVRMGIYVGAKVYFIYEGYQGMVDGGSNIAEADWESVSSILQVGGTIIGSARCQAFRTREGRLKAACNLLQRGITNLCVIGGDGSLTGANLFRKEWSGLLEELARNGQIDKEAVQKYAYLNVVGMVGSIDNDFCGTDMTIGTDSALHRIIEVVDAIMTTAQSHQRTFVLEVMGRHCGYLALVSALACGADWVFLPESPPEEGWEEQMCVKLSENRARKKRLNIIIVAEGAIDTQNKPITSEKIKELVVTQLGYDTRVTILGHVQRGGTPSAFDRILASRMGVEAVIALLEATPDTPACVVSLNGNHAVRLPLMECVQMTQDVQKAMDERRFQDAVRLRGRSFAGNLNTYKRLAIKLPDDQIPKTNCNVAVINVGAPAAGMNAAVRSAVRVGIADGHRMLAIYDGFDGFAKGQIKEIGWTDVGGWTGQGGSILGTKRVLPGKYLEEIATQMRTHSINALLIIGGFEAYLGLLELSAAREKHEEFCVPMVMVPATVSNNVPGSDFSIGADTALNTITDTCDRIKQSASGTKRRVFIIETMGGYCGYLANMGGLAAGADAAYIFEEPFDIRDLQSNVEHLTEKMKTTIQRGLVLRNESCSENYTTDFIYQLYSEEGKGVFDCRKNVLGHMQQGGAPSPFDRNFGTKISARAMEWITAKLKEARGRGKKFTTDDSICVLGISKRNVIFQPVAELKKQTDFEHRIPKEQWWLKLRPLMKILAKYKASYDVSDSGQLEHVQPWSV

From publication PMC9688487
